# Experimental data from the supplement of paper PMC8728848.
# The other results are listed elsewhere or left out.
# Legend:
# Experiment in all cases: glycan array binding signal (z-score within array); higher = stronger binding
# Details in all cases: glycan notation: IUPAC condensed, linker removed
# [1] = target: Gal(b1-4)GlcNAc(b1-3)Gal(b1-4)GlcNAc(b1-3)[Gal(b1-4)GlcNAc(b1-3)Gal(b1-4)GlcNAc(b1-6)]GalNAc
# Method in brief: (§1)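 Glycan array data came from 3228 arrays in the Consortium for Functional Glycomics database, and only arrays with an available protein sequence were kept. Glycan names were put into IUPAC-condensed notation, and columns mapping to the same glycan were averaged. The binding signal is a within-array Z-score, averaged across arrays of one protein sequence run at different concentrations or buffers and across linkers. A negative Z-score can be read as non-binding.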
# [2] = target: Gal(b1-4)GlcNAc(b1-3)Gal(b1-4)GlcNAc(b1-6)[Gal(b1-3)]GalNAc
# Method in brief: as §1
# [3] = target: Gal(b1-4)GlcNAc(b1-3)Gal(b1-4)[Fuc(a1-3)]GlcNAc(b1-3)Gal(b1-4)[Fuc(a1-3)]GlcNAc
# Method in brief: as §1
# [4] = target: Gal(b1-4)GlcNAc(b1-3)GalNAc
# Method in brief: as §1
# [5] = target: Gal(b1-4)GlcNAc(b1-3)[Fuc(a1-3)GlcNAc(b1-6)]Gal(b1-4)Glc
# Method in brief: as §1
# [6] = target: Gal(b1-4)GlcNAc(b1-3)[Gal(b1-4)GlcNAc(b1-6)]Gal(b1-4)GlcNAc
# Method in brief: as §1
# [7] = target: Gal(b1-4)GlcNAc(b1-3)[GlcNAc(b1-6)]Gal(b1-4)GlcNAc
# Method in brief: as §1
# [8] = target: Gal(b1-4)GlcNAc(b1-6)Gal(b1-4)GlcNAc
# Method in brief: as §1
# [9] = target: Gal(b1-4)GlcNAc(b1-6)GalNAc
# Method in brief: as §1
# [10] = target: Gal(b1-4)GlcNAc(b1-6)[Gal(b1-3)]GalNAc
# Method in brief: as §1
# [11] = target: Gal(b1-4)GlcNAc(b1-6)[Gal(b1-4)GlcNAc(b1-3)]GalNAc
# Method in brief: as §1
# Gal(b1-4)GlcNAc6P = target: Gal(b1-4)GlcNAc6P
# Method in brief: as §1
# Gal(b1-6)Gal = target: Gal(b1-6)Gal
# Method in brief: as §1
# Gal3S(b1-3)GalNAc = target: Gal3S(b1-3)GalNAc
# Method in brief: as §1
# Gal3S(b1-3)GlcNAc = target: Gal3S(b1-3)GlcNAc
# Method in brief: as §1
# [12] = target: Gal3S(b1-3)[Fuc(a1-4)]GlcNAc
# Method in brief: as §1
# Gal3S(b1-4)Glc = target: Gal3S(b1-4)Glc
# Method in brief: as §1
# Gal3S(b1-4)Glc6S = target: Gal3S(b1-4)Glc6S
# Method in brief: as §1
# Gal3S(b1-4)GlcNAc = target: Gal3S(b1-4)GlcNAc
# Method in brief: as §1
# [13] = target: Gal3S(b1-4)[Fuc(a1-3)]Glc6S
# Method in brief: as §1
# [14] = target: Gal3S(b1-4)[Fuc(a1-3)]GlcNAc
# Method in brief: as §1
# [15] = target: Gal3S(b1-4)[Fuc(a1-3)]GlcNAc6S
# Method in brief: as §1
# Gal3S4S(b1-4)GlcNAc = target: Gal3S4S(b1-4)GlcNAc
# Method in brief: as §1
# Gal3S6S(b1-4)GlcNAc = target: Gal3S6S(b1-4)GlcNAc
# Method in brief: as §1
# Gal3S6S(b1-4)GlcNAc6S = target: Gal3S6S(b1-4)GlcNAc6S
# Method in brief: as §1
# Gal4S(b1-4)GlcNAc = target: Gal4S(b1-4)GlcNAc
# Method in brief: as §1
# Gal4S6S(b1-4)GlcNAc = target: Gal4S6S(b1-4)GlcNAc
# Method in brief: as §1
# Gal6P(b1-4)GlcNAc = target: Gal6P(b1-4)GlcNAc
# Method in brief: as §1
# Gal6S(b1-3)GlcNAc = target: Gal6S(b1-3)GlcNAc
# Method in brief: as §1
# Gal6S(b1-3)GlcNAc6S = target: Gal6S(b1-3)GlcNAc6S
# Method in brief: as §1
# Gal6S(b1-4)Glc = target: Gal6S(b1-4)Glc
# Method in brief: as §1
# Gal6S(b1-4)Glc6S = target: Gal6S(b1-4)Glc6S
# Method in brief: as §1
# Gal6S(b1-4)GlcNAc = target: Gal6S(b1-4)GlcNAc
# Method in brief: as §1
# Gal6S(b1-4)GlcNAc6S = target: Gal6S(b1-4)GlcNAc6S
# Method in brief: as §1
# GalNAc(a1-3)Gal = target: GalNAc(a1-3)Gal
# Method in brief: as §1
# GalNAc(a1-3)GalNAc = target: GalNAc(a1-3)GalNAc
# Method in brief: as §1
# [16] = target: GalNAc(a1-3)GalNAc(b1-3)Gal(a1-4)Gal(b1-4)Glc
# Method in brief: as §1
binder,measurement,setting,value
LlpA (Arthrobacter sp) (protein) MGSSHHHHHHSSGLVPRGSHMTLHPETALRPGAAATSPNSRYRLLYQTDGNLVLYGPDGPLWDSGTNGHGAGACIMQADGNLVLYGPNDEYVWDTETDNNPGSRLVIQDDGNAVIYRPDGSPLWATETCQPPGSADSHVLQSGSTLTPTHGIRSANGLYGLLYQTDGNLVFYGPDGPLWDSGTNGRGAGACIMQPDGNLVLYGPHDEYVWDTETDNNPGSRLVIQDDGNAVIYRPDGNPTWVTGTH,glycan array binding signal (z-score),[1],0.982
same,glycan array binding signal (z-score),[2],-0.736
same,glycan array binding signal (z-score),[3],0.34
same,glycan array binding signal (z-score),[4],-0.295
same,glycan array binding signal (z-score),[5],-0.387
same,glycan array binding signal (z-score),[6],-1.1
same,glycan array binding signal (z-score),[7],-0.412
same,glycan array binding signal (z-score),[8],-0.058
same,glycan array binding signal (z-score),[9],0.615
same,glycan array binding signal (z-score),[10],-0.352
same,glycan array binding signal (z-score),[11],-0.482
same,glycan array binding signal (z-score),Gal(b1-4)GlcNAc6P,0.159
same,glycan array binding signal (z-score),Gal(b1-6)Gal,0.799
same,glycan array binding signal (z-score),Gal3S(b1-3)GalNAc,0.802
same,glycan array binding signal (z-score),Gal3S(b1-3)GlcNAc,0.062
same,glycan array binding signal (z-score),[12],0.465
same,glycan array binding signal (z-score),Gal3S(b1-4)Glc,0.471
same,glycan array binding signal (z-score),Gal3S(b1-4)Glc6S,-0.898
same,glycan array binding signal (z-score),Gal3S(b1-4)GlcNAc,-0.268
same,glycan array binding signal (z-score),[13],2.1
same,glycan array binding signal (z-score),[14],0.763
same,glycan array binding signal (z-score),[15],0.519
same,glycan array binding signal (z-score),Gal3S4S(b1-4)GlcNAc,-0.442
same,glycan array binding signal (z-score),Gal3S6S(b1-4)GlcNAc,1.11
same,glycan array binding signal (z-score),Gal3S6S(b1-4)GlcNAc6S,0.499
same,glycan array binding signal (z-score),Gal4S(b1-4)GlcNAc,-0.524
same,glycan array binding signal (z-score),Gal4S6S(b1-4)GlcNAc,-1.12
same,glycan array binding signal (z-score),Gal6P(b1-4)GlcNAc,-0.946
same,glycan array binding signal (z-score),Gal6S(b1-3)GlcNAc,0.643
same,glycan array binding signal (z-score),Gal6S(b1-3)GlcNAc6S,0.386
same,glycan array binding signal (z-score),Gal6S(b1-4)Glc,-0.184
same,glycan array binding signal (z-score),Gal6S(b1-4)Glc6S,-0.843
same,glycan array binding signal (z-score),Gal6S(b1-4)GlcNAc,-1.13
same,glycan array binding signal (z-score),Gal6S(b1-4)GlcNAc6S,0.734
same,glycan array binding signal (z-score),GalNAc(a1-3)Gal,0.573
same,glycan array binding signal (z-score),GalNAc(a1-3)GalNAc,0.469
same,glycan array binding signal (z-score),[16],-0.632

# Laid out differently: entries from further up.
binder	measurement	setting	value
LlpA (Arthrobacter sp) (protein) MGSSHHHHHHSSGLVPRGSHMTLHPETALRPGAAATSPNSRYRLLYQTDGNLVLYGPDGPLWDSGTNGHGAGACIMQADGNLVLYGPNDEYVWDTETDNNPGSRLVIQDDGNAVIYRPDGSPLWATETCQPPGSADSHVLQSGSTLTPTHGIRSANGLYGLLYQTDGNLVFYGPDGPLWDSGTNGRGAGACIMQPDGNLVLYGPHDEYVWDTETDNNPGSRLVIQDDGNAVIYRPDGNPTWVTGTH	glycan array binding signal (z-score)	Gal6S(b1-4)Glc6S	-0.843
same	glycan array binding signal (z-score)	GalNAc(a1-3)Gal	0.573
